{
  "source": "PubChem BioAssay AID758",
  "about": "(NMMLSC, 2007)",
  "note": "Among all 190,000 compounds or so, about 110 (0.058%) were called active. Inconclusive means that the source gave no clear call. Such entries were picked first, then a sample of the others.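 The calls were made as follows: active = fluorescent GTP binding to Rab7 beads changed by at least 20 points from the 100% baseline, either direction, mostly lower; inconclusive = compound itself probably fluorescent, or too few beads counted; inactive = the rest.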",
  "data": [
    {"tested_on": "Rab7 GTPase wild type (dog), Bodipy-FL-GTP binding", "test": "modulators of GTP binding to Rab7, primary screen, biochemical, wildtype, multiplex bead flow cytometry (AID 758);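 also: median green fluorescence of bound Bodipy-FL-GTP per Rab7 bead population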", "details": "GST-Rab7 beads, fluorescent GTP binding, at 10 µM, actives lie on both sides, untreated = 100%, excess cold GTP = 0%", "values": [
      {"smiles": "Nc1nnn(Cc2ccccc2)n1", "GTP binding activity (percent of control)": "inconclusive: 103%"},
      {"smiles": "C/C(=N\\Nc1nc(N2CCOCC2)nc(N2CCOCC2)n1)c1ccc([N+](=O)[O-])cc1", "GTP binding activity (percent of control)": "inactive: 96%"},
      {"smiles": "O=C(CCCN1C(=O)/C(=C/c2ccccc2)SC1=S)Nc1ccccc1O", "GTP binding activity (percent of control)": "inconclusive: 92%"},
      {"smiles": "C/C=C/c1ccccc1OCc1ccc(C(=O)O)o1", "GTP binding activity (percent of control)": "active: 134% [activator]"},
      {"smiles": "Cc1ncn(-c2ccc(C(=O)Oc3ccccc3)cn2)n1", "GTP binding activity (percent of control)": "inactive: 103%"},
      {"smiles": "O=C(/C=C/c1ccccc1)NC(=S)Nc1ccc(CN2CCOCC2)cc1", "GTP binding activity (percent of control)": "inconclusive: 101%"},
      {"smiles": "C/C(CC(=O)Nc1cccc(C(F)(F)F)c1)=N\\NC(=O)C1CCCCC1", "GTP binding activity (percent of control)": "inconclusive: 94%"},
      {"smiles": "CC(=O)c1c(C)[nH]c(C(=O)Nc2cccnc2)c1C", "GTP binding activity (percent of control)": "inconclusive: 98%"},
      {"smiles": "O=C(NCCCn1ccnc1)C(Cc1ccccc1)N1C(=O)c2ccccc2C1=O", "note": "(stereo unspecified)", "GTP binding activity (percent of control)": "inconclusive: 91%"},
      {"smiles": "O=c1oc2c3c4c(cc2c2c1CCC2)OCCN4CCC3", "GTP binding activity (percent of control)": "inconclusive: 89%"},
      {"smiles": "CC1=[N+](C)c2c(ccc3cccnc23)C1(C)C", "GTP binding activity (percent of control)": "inactive: 101%"},
      {"smiles": "O=C(CN1C(=O)S/C(=C/c2cccnc2)C1=O)N1CCOCC1", "GTP binding activity (percent of control)": "inactive: 88%"},
      {"smiles": "COc1cc(C(=O)NCCOc2ccc(F)cc2)c(Br)c(OC)c1OC", "GTP binding activity (percent of control)": "inactive: 93%"},
      {"smiles": "Cc1nc2nc(C)c(CCC(=O)NC(C)c3ccc4c(c3)OCCO4)c(C)n2n1", "note": "(stereo unspecified)", "GTP binding activity (percent of control)": "inconclusive: 105%"},
      {"smiles": "Cc1ccc(-n2c(=O)[nH]c3c(oc4ccccc43)c2=O)cc1", "GTP binding activity (percent of control)": "inactive: 106%"},
      {"smiles": "CC/C(O)=C(/C#N)c1nnc2n1CCCCC2", "GTP binding activity (percent of control)": "inactive: 102%"},
      {"smiles": "CC1CN(CC(=O)NN=C(c2ccccc2)c2ccccc2)CC(C)O1", "note": "(stereo unspecified)", "GTP binding activity (percent of control)": "inactive: 95%"},
      {"smiles": "Cc1ccc2c(c1)c(N=NC(N)=O)c(O)n2C", "GTP binding activity (percent of control)": "inconclusive: 89%"},
      {"smiles": "CCn1nc(NC(=O)c2cccs2)c2cc3ccccc3nc21", "GTP binding activity (percent of control)": "inactive: 95%"},
      {"smiles": "O=C(Nc1ccc(-c2nc3ccc(NC(=O)c4cccs4)cc3[nH]2)cc1)c1cccs1", "GTP binding activity (percent of control)": "inconclusive: 87%"},
      {"smiles": "Brc1ccc(CSc2ccc3nnc(-c4ccccn4)n3n2)cc1", "GTP binding activity (percent of control)": "inconclusive: 91%"},
      {"smiles": "CS(=O)(=O)N1N=C(c2ccccc2)CC1c1ccc2c(c1)OCO2", "note": "(stereo unspecified)", "GTP binding activity (percent of control)": "inconclusive: 138%"},
      {"smiles": "Cc1ccc2c(c1)-c1c(cnn1CC(=O)Nc1ccccc1N1CCN(C)CC1)CO2", "GTP binding activity (percent of control)": "inconclusive: 102%"},
      {"smiles": "Cc1ccc(-c2nnc(SCC(=O)N3CCCc4ccccc43)n2N)cc1", "GTP binding activity (percent of control)": "inactive: 98%"},
      {"smiles": "Cc1cc(NC(=O)CCCn2ccc([N+](=O)[O-])n2)n(Cc2ccc(F)cc2)n1", "GTP binding activity (percent of control)": "inactive: 93%"},
      {"smiles": "CCCNC(=O)C(=O)NCc1ccccn1", "GTP binding activity (percent of control)": "inconclusive: 87%"},
      {"smiles": "CN1CCCC1=Nc1c2c(nc3ccccc13)N(C)CC2", "GTP binding activity (percent of control)": "inconclusive: 102%"},
      {"smiles": "CCOC(=O)N1CCN(C(=O)CCl)CC1", "GTP binding activity (percent of control)": "inactive: 101%"},
      {"smiles": "CCOC(=O)C1(CCCc2ccccc2)CCN(C(=O)C2=C(C)OCCO2)CC1", "GTP binding activity (percent of control)": "inactive: 102%"},
      {"smiles": "COC(=O)c1ccc(COc2ccccc2/C=N/Nc2cccc(C(=O)O)c2)cc1", "GTP binding activity (percent of control)": "active: 126% [activator]"},
      {"smiles": "CCOC(=O)c1c(C)[nH]c(=S)c(C#N)c1-c1ccc(Cl)cc1", "GTP binding activity (percent of control)": "inconclusive: 91%"},
      {"smiles": "Cc1ccc(NC(=O)COC(=O)c2cccc3c2C(=O)c2ccccc2C3=O)c(C)c1", "GTP binding activity (percent of control)": "inconclusive: 97%"},
      {"smiles": "CC(C)CNC(=S)N1CCC(NC(=O)C23CC4CC(CC(C4)C2)C3)CC1", "GTP binding activity (percent of control)": "inconclusive: 102%"},
      {"smiles": "CC(C)N1CSC(=S)N(Cc2ccccc2)C1", "GTP binding activity (percent of control)": "inactive: 97%"},
      {"smiles": "C=CCNCCCCOc1ccccc1-c1ccccc1", "GTP binding activity (percent of control)": "inconclusive: 102%"},
      {"smiles": "O=C(CCn1c(=O)oc2ccccc21)N1CCN(c2ccccc2F)CC1", "GTP binding activity (percent of control)": "inconclusive: 106%"},
      {"smiles": "COc1cc(/C=N/NC(=O)c2csc3c2CCCC3)cc(OC)c1O", "GTP binding activity (percent of control)": "inconclusive: 95%"},
      {"smiles": "CC1CC(C)CN(C(=O)c2cc3cc(Br)cc(Br)c3o2)C1", "note": "(stereo unspecified)", "GTP binding activity (percent of control)": "inactive: 92%"},
      {"smiles": "Cc1c(Br)c([N+](=O)[O-])nn1CC(=O)NCCc1c[nH]c2ccccc12", "GTP binding activity (percent of control)": "inactive: 103%"},
      {"smiles": "COCCn1c(C)cc(C(=O)CSc2nnc(-c3cccnc3)n2-c2ccccc2F)c1C", "GTP binding activity (percent of control)": "inconclusive: 101%"},
      {"smiles": "CNC(=S)N1CCc2cc(OC)c(OC)cc2C1COc1ccc(F)cc1", "note": "(stereo unspecified)", "GTP binding activity (percent of control)": "inconclusive: 98%"},
      {"smiles": "O=C(CSc1nc2ccccc2c(=O)n1-c1ccccc1)N/N=C/C=C/c1ccccc1[N+](=O)[O-]", "GTP binding activity (percent of control)": "inconclusive: 94%"},
      {"smiles": "CCOc1ccc(Nc2nnc(Cc3ccc(OC)cc3)c(=O)[nH]2)cc1", "GTP binding activity (percent of control)": "inactive: 94%"},
      {"smiles": "CCOC1Cc2ccccc2N(C(N)=O)c2ccccc21", "note": "(stereo unspecified)", "GTP binding activity (percent of control)": "inactive: 90%"},
      {"smiles": "O=[N+]([O-])c1cc(S(=O)(=O)Nc2cccc(C(F)(F)F)c2)ccc1-n1nnc2ccccc21", "GTP binding activity (percent of control)": "inconclusive: 92%"},
      {"smiles": "Cc1nn2c([nH]c(=O)c3ccccc32)c1C=O", "GTP binding activity (percent of control)": "inconclusive: 101%"},
      {"smiles": "Cc1cc(OCc2nnc(SC(C)C(=O)O)n2Cc2ccccc2)ccc1Cl", "note": "(stereo unspecified)", "GTP binding activity (percent of control)": "inactive: 99%"},
      {"smiles": "CCCC(=O)NC(=S)c1c(C)n(C)n(-c2ccccc2)c1=O", "GTP binding activity (percent of control)": "inactive: 104%"},
      {"smiles": "Cc1cc(OC(C)C(N)=O)nc(-c2ccccc2)n1", "note": "(stereo unspecified)", "GTP binding activity (percent of control)": "inactive: 97%"},
      {"smiles": "Cc1ccc(S(=O)(=O)c2cc3c(=O)n4ccccc4nc3n(C)c2=N)cc1", "GTP binding activity (percent of control)": "inactive: 93%"},
      {"smiles": "Cc1cc(C)n2ncc(C(=O)NCc3cccnc3)c2n1", "GTP binding activity (percent of control)": "inconclusive: 104%"},
      {"smiles": "COc1ccc(CNC(=O)COC(=O)c2ccc3c(c2)OCCO3)cc1", "GTP binding activity (percent of control)": "inconclusive: 103%"},
      {"smiles": "CC1CN(c2nn3c(=O)c4ccccc4nc3c3ccccc23)CC(C)O1", "note": "(stereo unspecified)", "GTP binding activity (percent of control)": "inconclusive: 94%"},
      {"smiles": "O=S(=O)(c1ccccc1)N(CC1CO1)c1ccccc1", "note": "(stereo unspecified)", "GTP binding activity (percent of control)": "inconclusive: 92%"},
      {"smiles": "COc1cc(OC)cc(C2=NCCN2)c1", "GTP binding activity (percent of control)": "inactive: 95%"},
      {"smiles": "O=C(NCC1CCCO1)C(c1ccc(F)cc1)N(C(=O)Cn1nnc(-c2ccc(F)cc2)n1)c1cccc(O)c1", "note": "(stereo unspecified)", "GTP binding activity (percent of control)": "inconclusive: 97%"},
      {"smiles": "Cc1cc(N2CCN(c3ccccn3)CC2)n2c(nc3ccccc32)c1C#N", "GTP binding activity (percent of control)": "inconclusive: 87%"},
      {"smiles": "CCc1sc(C(=O)NCc2ccccc2)cc1C", "GTP binding activity (percent of control)": "inconclusive: 93%"},
      {"smiles": "Oc1ccc(-c2nncn2-c2ccccc2)cc1", "GTP binding activity (percent of control)": "inactive: 99%"},
      {"smiles": "COc1ccc(CNc2nc3c(c(=O)n(Cc4ccc(Cl)cc4)c(=O)n3C)n2C)cc1", "GTP binding activity (percent of control)": "inactive: 85%"},
      {"smiles": "CC(C)c1ccc(NC(=O)N2CCCC2C(=O)Nc2ccc(-n3cnnn3)cc2)cc1", "note": "(stereo unspecified)", "GTP binding activity (percent of control)": "inactive: 89%"}
    ]}
  ]
}
